Measured values taken from patent publication US10329304B2, “Compounds and methods for inhibition of hedgehog signaling and phosphodiesterase” (Vanderbilt University, priority 2014, dated 2019).

Amino acid sequences for entries named in this document (tags omitted). Residues count along the entry.
UniProt Q08499, 303-809: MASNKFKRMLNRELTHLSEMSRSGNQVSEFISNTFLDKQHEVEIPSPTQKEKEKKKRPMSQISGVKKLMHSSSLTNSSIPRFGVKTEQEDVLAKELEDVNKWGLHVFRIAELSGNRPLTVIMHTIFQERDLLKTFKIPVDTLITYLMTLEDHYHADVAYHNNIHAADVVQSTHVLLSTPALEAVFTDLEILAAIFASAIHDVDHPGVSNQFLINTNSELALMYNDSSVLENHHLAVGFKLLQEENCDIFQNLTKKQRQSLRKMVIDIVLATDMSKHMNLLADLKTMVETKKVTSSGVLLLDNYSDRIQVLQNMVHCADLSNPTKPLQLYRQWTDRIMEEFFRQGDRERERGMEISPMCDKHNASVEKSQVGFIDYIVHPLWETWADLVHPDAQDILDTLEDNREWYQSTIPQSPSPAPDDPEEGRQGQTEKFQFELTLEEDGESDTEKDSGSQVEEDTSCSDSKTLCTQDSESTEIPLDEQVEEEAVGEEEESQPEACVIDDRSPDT
UniProt Q08499, 1-673 isoform 2: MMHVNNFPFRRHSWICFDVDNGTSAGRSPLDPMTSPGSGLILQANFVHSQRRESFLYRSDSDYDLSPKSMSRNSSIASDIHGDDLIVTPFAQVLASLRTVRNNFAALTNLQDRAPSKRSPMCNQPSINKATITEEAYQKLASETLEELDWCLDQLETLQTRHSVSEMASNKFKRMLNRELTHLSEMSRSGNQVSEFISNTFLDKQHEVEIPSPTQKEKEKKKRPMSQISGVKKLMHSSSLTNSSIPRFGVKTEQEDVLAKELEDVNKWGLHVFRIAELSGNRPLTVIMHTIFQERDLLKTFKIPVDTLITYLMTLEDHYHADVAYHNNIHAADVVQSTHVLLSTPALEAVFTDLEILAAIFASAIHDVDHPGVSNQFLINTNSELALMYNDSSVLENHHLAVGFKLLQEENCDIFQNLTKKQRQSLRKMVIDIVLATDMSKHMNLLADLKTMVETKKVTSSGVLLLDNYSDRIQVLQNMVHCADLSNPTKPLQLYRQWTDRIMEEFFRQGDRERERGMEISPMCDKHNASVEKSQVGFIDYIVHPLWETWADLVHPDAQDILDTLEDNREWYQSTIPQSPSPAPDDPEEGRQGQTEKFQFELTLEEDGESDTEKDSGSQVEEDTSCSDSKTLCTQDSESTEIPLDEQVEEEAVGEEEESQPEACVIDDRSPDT

How the values were obtained:
Gli1 mRNA = assay: Hh % Inh.: SAG-induced Gli1 expression in C3H10T½ cells (qPCR); conditions: 10 pM [sic]; SAG-induced (100 nM), 24 hours
[1] = tested on: Hedgehog signaling (TM3-Gli-Luc); assay: TM3-Gli-Luc luciferase reporter assay stimulated with 20 nM SAG; format: cell-based
SW480 = assay: Cell viability assay (CellTiter-Blue, 72 hr); conditions: read-out: CELL KILLING EC50 (μM) Colon SW480; human cancer cells
RKO = assay: Cell viability assay (CellTiter-Blue, 72 hr); conditions: read-out: CELL KILLING EC50 (μM) Colon RKO; human cancer cells
MCF7 = assay: Cell viability assay (CellTiter-Blue, 72 hr); conditions: read-out: CELL KILLING EC50 (μM) Breast MCF7; human cancer cells
HCT116 = assay: Cell viability assay (CellTiter-Blue, 72 hr); conditions: read-out: CELL KILLING EC50 (μM) Colon HTC116; human cancer cells
DaoY = assay: Cell viability assay (CellTiter-Blue, 72 hr); conditions: read-out: CELL KILLING EC50 (μM) Medulloblastoma DaoY; human cancer cells
PC3 = assay: Cell viability assay (CellTiter-Blue, 72 hr); conditions: read-out: CELL KILLING EC50 (μM) Prostate PCx3; human cancer cells
MDA-MB- 231 = assay: Cell viability assay (CellTiter-Blue, 72 hr); conditions: read-out: CELL KILLING EC50 (μM) Breast MDA-231; human cancer cells
DU145 = assay: Cell viability assay (CellTiter-Blue, 72 hr); conditions: read-out: CELL KILLING EC50 (μM) Prostate DU145; human cancer cells
RWGT2 = assay: Cell viability assay (CellTiter-Blue, 72 hr); conditions: read-out: CELL KILLING EC50 (μM) Lung Squam, NSCLC RWGT2; human cancer cells
B16F11 = assay: Cell viability assay (CellTiter-Blue, 72 hr); conditions: read-out: CELL KILLING EC50 (μM) Melanoma B16F10; Table 10
HeLa = assay: Cell viability assay (CellTiter-Blue, 72 hr); conditions: read-out: CELL KILLING EC50 (μM) Cervix HeLa; human cancer cells
H82 = assay: Cell killing EC50 in H82 lung cancer cells (Table 10); conditions: human cancer cells
PDE4D3 = PDE4D3 (Homo sapiens, UniProt Q08499); assay: In vitro PDE assay; conditions: read-out: PDE4D3 IC50; Table 9A
PDE4D2 = PDE4D2 (Homo sapiens, UniProt Q08499); assay: In vitro PDE assay; conditions: read-out: PDE4D2 IC50; Table 9A

C=C(C)Cn1c(SCC(=O)N2CCN(C)CC2)nc2sc3c(c2c1=O)CCCC3 [Formula (7)]
C3H10T1/2 qPCR, Gh1 mRNA % Inh., 10 pM (Gli1 mRNA): 36.9% | TM3 G8 Luciferase % Inh., 2 pM [1]: 33.1% | TM3 G8 Luciferase % Inh., 0.5 pM ([1]; 0.5 pM as printed): 21.5% | EC50 ([1]; read-out: TM3 G8 Luciferase EC 50, Table 9A): 17.8 µM | EC50 (SW480): 4.68 µM | EC50 (RKO): 29.2 µM | EC50 (MCF7): 74.6 µM | EC50 (HCT116): 66.4 µM | EC50 (DaoY): 44.9 µM | EC50 (PC3): 105 µM | EC50 (MDA-MB- 231): 17.3 µM | EC50 (DU145): 40.3 µM | EC50 (RWGT2): 59.5 µM | EC50 (B16F11): 25.3 µM | EC50 (HeLa): 78.6 µM | CELL KILLING EC50 (μM) Lung H82 (H82): UnCh | IC50 (PDE4D3): 8.3 µM | IC50 (PDE4D2): 5.6 µM

The match of structure and compound is tentative.
